# Source: PubChem BioAssay AID2685 (National Center for Advancing Translational Sciences (NCATS), 2010)
# This is one part of the list. The main result of the screen is listed elsewhere. These columns were measured beside it and carry no call. Compounds called inactive in the main read-out are mostly missing here. Potencies come from curve fits of mixed quality, noted in brackets.
# Experiment: qHTS Assay for Lipid Storage Modulators in Drosophila S3 Cells;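 as to cell number change: cells counted by Cell Tracker Red CMTPX staining in the red channel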
# Details: BODIPY lipid droplet fluorescence, 18-24 h; for cell number change: measured here: cell count max response, cells fed with added oleic acid
# How it was run: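 Drosophila S3 cells loaded with oleic acid (400 uM, as added) and compounds at several concentrations; lipid droplets imaged by 488-nm laser-scanning cytometry, 500–530 nm intensity and object ratio to cell channel. Percent activity normalized to 20 uM Triacsin C.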
# [1] = measured here: cell number channel AC50, cells fed with added oleic acid
# [2] = measured here: lipid fluorescence (Fed channel) AC50, cells fed with added oleic acid
SMILES,AC50 [1],AC50 [2],cell number change
Cc1ccc(Nc2ncnc3c2oc2ccccc23)cc1,"0.103 µM [rising, full curve, poor fit]","0.164 µM [rising, full curve, poor fit]",
CS(=O)(=O)N(CC(=O)Nc1ccc(Cl)c(Cl)c1)C1CCCCC1,,"29.1 µM [rising, single point]",-10.8%
NS(=O)(=O)c1ccc(CNC(=O)Cc2c(F)cccc2Cl)cc1,,"0.82 µM [rising, full curve, poor fit]",18.8%
Clc1ccc(OCCOCCN2CCc3ccccc3C2)c(Cl)c1,"14.6 µM [falling, single point]","18.4 µM [falling, single point]",-30.4%
CCOC(=O)c1c(C)[nH]c(C(=O)OCc2ccccc2F)c1C,,"1.03 µM [rising, single point]",-6.25%
COc1cc(NC(=O)C2COc3ccccc3O2)c(OC)cc1Cl (stereo not given),,"6.51 µM [rising, single point]",23.3%
OCCC1CN(C2CCSCC2)CCN1C1CCCC1 (stereo not given),,"29.1 µM [falling, single point]",9.75%
C=CCNC(=S)NNC(=O)C(CCC(C)C)CC(C)O (stereo not given),,"29.1 µM [falling, single point]",-3.31%
CC(C)(C)NC(=O)C1CCCN(S(=O)(=O)c2cccc3cccnc23)C1 (stereo not given),"1.16 µM [falling, single point]","1.16 µM [falling, single point]",-0.506%
CC(C)(C)Nc1nc(Cl)nc(NC2CCCCC2)n1,"8.2 µM [falling, partial curve]","29.1 µM [falling, single point]",-40.2%
CN(NS(=O)(=O)c1ccc(Cl)cc1)c1nc(C(F)(F)F)nc2ccccc12,,"3.66 µM [falling, single point]",
O=C(Cn1cc(C(F)(F)F)cc(Cl)c1=O)NCC1COc2ccccc2O1 (stereo not given),,"5.8 µM [rising, full curve]",-3.89%
CC1Cc2ccccc2N1C(=O)C1CCCN(S(=O)(=O)c2cccc3cccnc23)C1 (stereo not given),,,5.71%
COc1cccc(NC(=O)CC(=O)c2ccccc2)c1,"29.1 µM [rising, single point]","29.1 µM [rising, single point]",30.4%
Cc1c(CCC(=O)NCCCn2ccnc2)c(=O)oc2c(C)c3oc4c(c3cc12)CCCC4,,"8.2 µM [falling, partial curve, poor fit]",-20.2%
NC(=NCCc1ccc(Cl)cc1)NS(=O)(=O)c1ccccc1,,"29.1 µM [rising, single point]",14%
Cc1nn(CC(=O)N2CCOCC2)c(=O)c2ccccc12,,"2.59 µM [rising, full curve]",
Cc1cc(NC(=O)C(C)Oc2ccc(Cl)cc2Cl)n(-c2ccccc2)n1 (stereo not given),,"20.6 µM [rising, partial curve]",13.8%
Cc1ccc(-n2nc3c(c2NC(=O)c2cccs2)CSC3)cc1,"20.6 µM [rising, partial curve, poor fit]",,148%
COc1ccccc1CC1(C)NC(=O)N(CC(=O)N2CCc3ccccc3C2)C1=O (stereo not given),,,-4.33%

# Two consecutive entries from above:
SMILES,AC50 [1],AC50 [2],cell number change
COc1cccc(NC(=O)CC(=O)c2ccccc2)c1,"29.1 µM [rising, single point]","29.1 µM [rising, single point]",30.4%
Cc1c(CCC(=O)NCCCn2ccnc2)c(=O)oc2c(C)c3oc4c(c3cc12)CCCC4,,"8.2 µM [falling, partial curve, poor fit]",-20.2%

# Next entries follow.

SMILES,AC50 [1],AC50 [2],cell number change
COc1ccccc1-c1nc(C#N)c(NCCCn2ccnc2)o1,"0.082 µM [rising, full curve, poor fit]","0.082 µM [rising, full curve, poor fit]",
C=CCn1c(-c2ccc(Cl)cc2)cnc1SC(C)C(N)=O (stereo not given),"0.164 µM [falling, full curve, poor fit]","6.51 µM [falling, partial curve]",-18.5%
CC(C)N=C1NN=C(c2cccs2)CS1,,"2.59 µM [falling, single point]",-23.8%
CCOc1cccc(=O)c2c(C)n(C)c(C)c12,"6.51 µM [rising, single point]",,
O=C(/C=C/c1ccccc1)NCC(=O)N/N=C/c1ccco1,"18.4 µM [rising, partial curve, poor fit]","5.8 µM [rising, full curve]",41.1%
O=C(NNC(=S)Nc1cccc(C(F)(F)F)c1)c1ccccc1Cl,,"0.82 µM [rising, full curve, poor fit]",11.1%
Cn1c(N)c(C(=O)CSc2nc3ccccc3n2-c2ccccc2)c(=O)n(C)c1=O,,"0.82 µM [rising, single point]",-6.12%
O=C(O)C1CC(O)CN1S(=O)(=O)c1cccs1 (stereo not given),,"6.51 µM [falling, single point]",-16.3%
Cc1[nH]ccc(=O)c1Oc1ncc(C(F)(F)F)cc1Cl,"0.00461 µM [falling, full curve, poor fit]","1.3 µM [falling, full curve]",-24.2%
Cc1c(NC(=O)COc2c(F)c(F)c(F)c(F)c2F)c(=O)n(-c2ccccc2)n1C,,,24.4%
NC(=O)COc1ccc(C(=O)NCC2(N3CCOCC3)CCCCC2)cc1,,"0.0231 µM [falling, full curve, poor fit]",19.4%
O=C(Nc1ccc2c(c1)OCO2)C1CCCN1C(=O)Nc1ccccc1 (stereo not given),,"29.1 µM [rising, single point]",6.3%
CCOc1ccc2nc(SCCNS(=O)(=O)c3ccccc3)sc2c1,"6.51 µM [rising, full curve]","1.64 µM [rising, partial curve, poor fit]",81.1%
COc1ccc(C(=O)Nc2cc(C)c3c(=O)oc4ccccc4c3n2)cc1,"6.51 µM [rising, partial curve]",,52.7%
Oc1c(N=Nc2ccc(F)cc2)ccc2ccccc12,,"11.6 µM [falling, single point]",
OC1(C(F)(F)F)CC(c2ccc3ccccc3c2)=NO1 (stereo not given),,"0.00461 µM [falling, full curve, poor fit]",-24.8%
COc1ccc(C(=O)COC(=O)C(CCCCN2C(=O)C3C4C=CC(C4)C3C2=O)N2C(=O)C3C4C=CC(C4)C3C2=O)cc1 (stereo not given),,"5.17 µM [rising, single point]",3.92%
O=C(Cn1c2c(c(-c3ccccc3)cc1=O)CCCC2)N1CCCCCC1,,"0.731 µM [falling, full curve, poor fit]",-18%
CCC1CSC(Nc2ccc(C(=O)/C=C/c3ccc(OC)c(OC)c3)cc2)=N1 (stereo not given),"2.31 µM [rising, single point]","6.51 µM [rising, single point]",9.89%
CCOC(=O)NC(=O)c1cn(Nc2ncc(Cl)cc2C(F)(F)F)c(=O)[nH]c1=O,"0.58 µM [falling, full curve]",,-51.9%

SMILES,AC50 [1],AC50 [2],cell number change
CCOP(=O)(OCC)c1nc(-c2ccccc2)oc1N1CCCCC1,"0.366 µM [rising, full curve]","6.51 µM [rising, single point]",30.3%
O=C(CSc1n[nH]c(=O)[nH]c1=O)N/N=C/c1ccccc1O,,"20.6 µM [rising, single point]",1.02%
O=C(Nc1ccc2c(c1)OCCO2)C1CCN(C(=O)c2ccc([N+](=O)[O-])cc2)CC1,"29.1 µM [rising, single point]","29.1 µM [rising, single point]",114%
CCC1CCCCN1C(=O)/C=C/c1ccc2c(c1)OCO2 (stereo not given),,"29.1 µM [rising, single point]",1.32%
COc1cccc(-c2nn(C)c3sc(C(=O)NCc4ccccn4)cc23)c1,,"4.11 µM [rising, full curve]",11.6%
O=C(Nc1cccc(NC(=O)c2ccccc2Cl)c1)c1ccc(F)cc1,,,-12.3%
O=C(COC(=O)CNS(=O)(=O)c1cccc(F)c1)NCCc1ccccc1,,,-0.803%
CCOC(=O)c1[nH]c(C)c(C(=O)NC2CCN(C(=O)OCC)CC2)c1C,,"0.058 µM [rising, full curve, poor fit]",-14.3%
O=C1NC(=Nc2ccccc2Cl)SC1(CO)CO,,"14.6 µM [falling, single point]",-21.4%
CN(C)c1ccc(N=Cc2nc(-c3ccccc3)oc2OC(=O)c2ccccc2)cc1,"6.51 µM [falling, single point]",,8.73%
COc1ccc(NC(=S)NNC(=O)C2CC2c2ccc(C)cc2)cc1 (stereo not given),"9.2 µM [rising, partial curve]","0.651 µM [rising, single point]",43.3%
O=c1ccc(-c2ccc(S(=O)(=O)Nc3cccc(F)c3)o2)n[nH]1,"16.4 µM [rising, single point]",,43.9%
CCN=C1SC(C(=O)Nc2cccc(C(=O)O)c2)CC(=O)N1CC (stereo not given),,"5.8 µM [rising, full curve]",-2.86%
COc1ccc(-n2c(SCC(=O)NCCCN3CCCC3=O)nnc2C(C)N2CCCCC2)cc1 (stereo not given),"1.64 µM [falling, single point]","5.8 µM [falling, single point]",3.7%
Cc1csc(NC(=O)c2cc3c(s2)CCCCC3)n1,,"18.4 µM [rising, partial curve]",60%
Cc1ccccc1-c1nnn(CC(=O)N2CCN(C(=O)c3ccco3)CC2)n1,,"14.6 µM [rising, single point]",24.9%
O=C(O)c1cccc2c1C(=O)N(Cc1ccncc1)C2,,"8.2 µM [rising, partial curve]",4.1%
CSc1nsc(SCC(=O)Nc2ccc(C(C)=O)cc2)n1,"0.0206 µM [rising, full curve]",,25.8%
